From PMC3213134, “A Non-Motor Microtubule Binding Site Is Essential for the High Processivity and Mitotic Function of Kinesin-8 Kif18A” (PLoS ONE, 2011)
These are yes or no findings as the source states them, for the method shown. Binding seen in cells or lysates may run through a third protein. Some entries that bind do so weakly or less than the wild type. Where a sequence is shown, tags or fusion partners need not be part of it.

Biological target: Kif18A^1-777, GFP- and Myc-tagged copies co-expressed in 293T cells (human) (UniProt Q8NI77)
Test: co-IP; 293T cells co-expressing GFP- and Myc-tagged Kif18A^1-777; lysis buffer with 0.5% Triton-X100 and 300 mM NaCl; GFP antibodies on Protein G beads; blots probed with GFP and myc antibodies

binding: binds
B1: His-Kif18A^1-777-GFP (domain or fragment, human, UniProt Q8NI77 1-777, looked up)
chain: MSVTEEDLCHHMKVVVRVRPENTKEKAAGFHKVVHVVDKHILVFDPKQEEVSFFHGKKTTNQNVIKKQNKDLKFVFDAVFDETSTQSEVFEHTTKPILRSFLNGYNCTVLAYGATGAGKTHTMLGSADEPGVMYLTMLHLYKCMDEIKEEKICSTAVSYLEVYNEQIRDLLVNSGPLAVREDTQKGVVVHGLTLHQPKSSEEILHLLDNGNKNRTQHPTDMNATSSRSHAVFQIYLRQQDKTASINQNVRIAKMSLIDLAGSERASTSGAKGTRFVEGTNINRSLLALGNVINALADSKRKNQHIPYRNSKLTRLLKDSLGGNCQTIMIAAVSPSSVFYDDTYNTLKYANRAKDIKSSLKSNVLNVNNHITQYVKICNEQKAEILLLKEKLKAYEEQKAFTNENDQAKLMISNPQEKEIERFQEILNCLFQNREEIRQEYLKLEMLLKENELKSFYQQQCHKQIEMMCSEDKVEKATGKRDHRLAMLKTRRSYLEKRREEELKQFDENTNWLHRVEKEMGLLSQNGHIPKELKKDLHCHHLHLQNKDLKAQIRHMMDLACLQEQQHRQTEAVLNALLPTLRKQYCTLKEAGLSNAAFESDFKEIEHLVERKKVVVWADQTAEQPKQNDLPGISVLMTFPQLGPVQPIPCCSSSGGTNLVKIPTEKRTRRKLMPSPLKGQHTLKSPPSQSVQLNDSLSKELQPIVYTPEDCRKAFQNPSTVTLMKPSSFTTSFQAISSNINSDNCLKMLCEVAIPHNRRKECGQEDLDSTFTICEDIK
notes: not shown: His6, N-terminal, kept; GFP, C-terminal, kept
